Values from PubChem BioAssay AID1671195 (Yale University, 2021).

- Test: 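Knockdowns that increase or decrease uptake of fluorescent LDL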 (primary screen)
- System: human Huh7 hepatoma cells
- Reagents: siRNA pool against human genes, 18 nM
- Duration: about 2 to 2.5 days of knockdown, then 8 h LDL uptake
- Challenge: DiI-labelled LDL at 30 µg/ml for 8 h, in lipoprotein-deficient serum medium
- Read-out: 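Per-cell DiI-LDL intensity by automated imaging; well means scaled to the plate median and given as a robust z-score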
- Direction: robust z-score: higher = more LDL uptake after knockdown
- Hit rule: 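Active when two or more replicates show a robust z-score above 2 or below -2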
Here is an unselected part of about 22,000 deposited reagents. About 1,510 of them (6.9%) count as active. 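Active includes knockdowns raising or lowering LDL uptake; positive z-scores mean more uptake, negative mean less.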 No sequences are given here.

gene	PubChem SID	robust z-score, replicate 1	robust z-score, replicate 2	robust z-score, replicate 3	Call
EEF1A1P33	SID442899232	-0.785	-0.71	-0.288	inactive
SERP2	SID442889052	0.436	0.537	0.887	inactive
MKX	SID442886885	1.78	1.41	-0.0789	inactive
EVI2A	SID442883640	2.3	2.47	2.8	active
GCAT	SID442885684	1.06	1.98	1.18	inactive
PCDHAC2	SID442883197	3.74	4.01	4.22	active
ARHGEF28	SID442895623	0.0597	-0.7	0.0773	inactive
PADI6	SID442888248	0.525	0.88	0.868	inactive
MRRF	SID442902352	-0.319	-1.58	-1.27	inactive
MYL6B	SID442888508	0.708	0.42	0.995	inactive
TNP1	SID442887432	0.311	1.47	0.959	inactive
EBI3	SID442892594	-0.246	0.83	-0.143	inactive
NDUFA1	SID442884884	2.36	1.57	1.51	inactive
FAM218A	SID442892780	0.136	0.333	-0.0941	inactive
LOC730218	SID442897911	-0.417	-0.725	-0.172	inactive
LGALS2	SID442887468	1.15	1.05	0.527	inactive
ONECUT1	SID442904708	-1.96	-1.78	-1.71	inactive
ARID4B	SID442896942	-0.392	-0.411	-0.183	inactive
PCED1A	SID442889369	0.391	0.64	0.681	inactive
UBE2W	SID442886888	1.24	0.445	1.43	inactive
ANAPC16	SID442901970	-1.36	-0.884	-0.723	inactive
UGT3A1	SID442894589	0.324	-0.399	-0.162	inactive
MAP1A	SID442900049	-0.121	-0.702	-1.29	inactive
SUPT20H	SID442891528	-0.157	0.946	0.0366	inactive
PDLIM5	SID442902515	-0.649	-1.06	-1.58	inactive
HSD17B10	SID442890268	0.496	1.21	-0.385	inactive
LOC401261	SID442893652	-0.0141	0.0664	0.0226	inactive
LOC401676 (retired record)	SID442896412	-0.542	-0.186	-0.0808	inactive

An excerpt taken from the entries so far, as a working copy:
gene	PubChem SID	robust z-score, replicate 1	robust z-score, replicate 2	robust z-score, replicate 3	Call
MAP1A	SID442900049	-0.121	-0.702	-1.29	inactive
SUPT20H	SID442891528	-0.157	0.946	0.0366	inactive
